Test results from publication PMC2613885.
These are yes or no findings as the source states them, for the method shown. Binding seen in cells or lysates may run through a third protein. A result given as binding can be weak or reduced; the word gives no strength. Sequences can lack the tags named with a protein.

Target: Myc-Vilse
Assay: co-IP; Myc-Vilse and V5-human Robo4 co-transfected in HEK293T for 36 h; RIPA lysates; IP with myc antibody, western with V5 antibody; 4°C; with or without AP-Slit2N (40 ng/ml, 1 h) on the cells

B1: V5-tagged human Robo4 (receptor, UniProt Q8WZ75 28-1007)
chain: QDSPPQILVHPQDQLFQGPGPARMSCQASGQPPPTIRWLLNGQPLSMVPPDPHHLLPDGTLLLLQPPARGHAHDGQALSTDLGVYTCEASNRLGTAVSRGARLSVAVLREDFQIQPRDMVAVVGEQFTLECGPPWGHPEPTVSWWKDGKPLALQPGRHTVSGGSLLMARAEKSDEGTYMCVATNSAGHRESRAARVSIQEPQDYTEPVELLAVRIQLENVTLLNPDPAEGPKPRPAVWLSWKVSGPAAPAQSYTALFRTQTAPGGQGAPWAEELLAGWQSAELGGLHWGQDYEFKVRPSSGRARGPDSNVLLLRLPEKVPSAPPQEVTLKPGNGTVFVSWVPPPAENHNGIIRGYQVWSLGNTSLPPANWTVVGEQTQLEIATHMPGSYCVQVAAVTGAGAGEPSRPVCLLLEQAMERATQEPSEHGPWTLEQLRATLKRPEVIATCGVALWLLLLGTAVCIHRRRRARVHLGPGLYRYTSEDAILKHRMDHSDSQWLADTWRSTSGSRDLSSSSSLSSRLGADARDPLDCRRSLLSWDSRSPGVPLLPDTSTFYGSLIAELPSSTPARPSPQVPAVRRLPPQLAQLSSPCSSSDSLCSRRGLSSPRLSLAPAEAWKAKKKQELQHANSSPLLRGSHSLELRACELGNRGSKNLSQSPGAVPQALVAWRALGPKLLSSSNELVTRHLPPAPLFPHETPPTQSQQTQPPVAPQAPSSILLPAAPIPILSPCSPPSPQASSLSGPSPASSRLSSSSLSSLGEDQDSVLTPEEVALCLELSEGEETPRNSVSPMPRAPSPPTTYGYISVPTASEFTDMGRTGGGVGPKGGVLLCPPRPCLTPTPSEGSLANGWGSASEDNAASARASLVSSSDGSFLADAHFARALAVAVDSFGFGLEPREADCVFIDASSPPSPRDEIFLTPNLSLPLWEWRPDWLEDMEVSHTQRLGRGMPPWPPDSQISSQRSQLHCRMPKAGASPVDYS
B1 was tested, and the binding was “binds”.
